We go through one substance from article doi:10.1101/2021.01.29.428839.

Chains of the proteins cited; added tags and fusions are not shown. Residues count along the entry.
UniProt C0LGR3, residues 25-1091: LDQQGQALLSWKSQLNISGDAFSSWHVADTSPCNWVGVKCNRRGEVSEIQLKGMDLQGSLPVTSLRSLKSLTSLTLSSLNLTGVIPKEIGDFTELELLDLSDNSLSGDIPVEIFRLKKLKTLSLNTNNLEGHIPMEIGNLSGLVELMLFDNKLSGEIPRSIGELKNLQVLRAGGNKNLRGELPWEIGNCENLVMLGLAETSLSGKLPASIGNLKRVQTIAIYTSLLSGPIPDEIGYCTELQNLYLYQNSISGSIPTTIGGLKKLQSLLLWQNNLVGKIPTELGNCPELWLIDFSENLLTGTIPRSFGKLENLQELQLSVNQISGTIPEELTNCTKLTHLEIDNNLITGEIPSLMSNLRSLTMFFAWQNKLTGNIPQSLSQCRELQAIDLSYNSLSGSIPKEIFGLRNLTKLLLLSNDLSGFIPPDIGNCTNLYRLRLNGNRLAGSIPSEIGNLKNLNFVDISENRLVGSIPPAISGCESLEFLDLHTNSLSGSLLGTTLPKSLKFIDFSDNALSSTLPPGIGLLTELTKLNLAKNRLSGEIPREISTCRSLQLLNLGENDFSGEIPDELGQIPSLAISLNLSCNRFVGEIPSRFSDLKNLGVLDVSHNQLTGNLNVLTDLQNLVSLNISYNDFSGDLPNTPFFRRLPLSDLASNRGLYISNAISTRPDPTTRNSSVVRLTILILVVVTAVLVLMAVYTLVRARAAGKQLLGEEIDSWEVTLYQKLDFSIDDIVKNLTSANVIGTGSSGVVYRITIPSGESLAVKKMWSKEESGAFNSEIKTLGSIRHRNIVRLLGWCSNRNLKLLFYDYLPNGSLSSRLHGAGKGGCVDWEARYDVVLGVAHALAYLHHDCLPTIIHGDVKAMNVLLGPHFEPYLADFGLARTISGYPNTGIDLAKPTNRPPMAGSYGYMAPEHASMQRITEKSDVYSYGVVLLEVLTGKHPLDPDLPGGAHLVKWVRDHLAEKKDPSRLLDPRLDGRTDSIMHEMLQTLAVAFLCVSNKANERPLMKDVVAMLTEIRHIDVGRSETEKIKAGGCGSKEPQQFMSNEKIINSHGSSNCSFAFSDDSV
UniProt Q9FL28, residues 24-1173: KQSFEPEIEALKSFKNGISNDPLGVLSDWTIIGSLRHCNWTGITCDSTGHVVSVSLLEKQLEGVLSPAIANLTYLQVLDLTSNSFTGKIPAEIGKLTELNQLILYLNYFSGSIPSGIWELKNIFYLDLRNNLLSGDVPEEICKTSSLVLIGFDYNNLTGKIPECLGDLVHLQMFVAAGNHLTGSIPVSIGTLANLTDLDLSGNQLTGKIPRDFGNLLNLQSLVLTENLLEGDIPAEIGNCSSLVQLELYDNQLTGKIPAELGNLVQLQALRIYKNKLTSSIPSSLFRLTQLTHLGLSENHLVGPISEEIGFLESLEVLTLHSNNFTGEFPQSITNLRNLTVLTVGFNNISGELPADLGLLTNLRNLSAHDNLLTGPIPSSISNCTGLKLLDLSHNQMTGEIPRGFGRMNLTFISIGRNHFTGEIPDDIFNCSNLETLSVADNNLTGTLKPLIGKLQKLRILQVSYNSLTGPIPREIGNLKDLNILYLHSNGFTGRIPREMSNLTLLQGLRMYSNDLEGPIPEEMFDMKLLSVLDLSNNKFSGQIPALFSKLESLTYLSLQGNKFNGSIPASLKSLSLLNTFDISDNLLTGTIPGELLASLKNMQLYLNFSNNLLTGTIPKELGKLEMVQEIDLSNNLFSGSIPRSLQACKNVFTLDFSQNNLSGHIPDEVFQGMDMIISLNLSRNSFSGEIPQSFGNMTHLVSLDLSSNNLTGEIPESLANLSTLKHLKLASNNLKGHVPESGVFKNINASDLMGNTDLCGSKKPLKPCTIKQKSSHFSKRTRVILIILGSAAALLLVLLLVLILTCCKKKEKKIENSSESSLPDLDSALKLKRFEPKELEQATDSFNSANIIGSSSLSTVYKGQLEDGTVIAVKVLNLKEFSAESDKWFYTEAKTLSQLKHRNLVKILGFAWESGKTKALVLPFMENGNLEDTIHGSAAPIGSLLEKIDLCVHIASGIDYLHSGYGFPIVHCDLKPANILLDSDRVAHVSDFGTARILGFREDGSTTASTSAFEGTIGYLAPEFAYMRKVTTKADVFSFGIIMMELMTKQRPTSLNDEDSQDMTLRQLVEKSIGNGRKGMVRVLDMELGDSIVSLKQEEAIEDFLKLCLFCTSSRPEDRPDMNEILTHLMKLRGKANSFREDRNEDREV

Results are given in words; binding and its absence hold for the method and conditions named. In cells and extracts the contact can be indirect. Some results given as binding are weak or reduced against the parent protein; the word gives no strength. For some assays here: Sequences can lack the tags named with a protein.

Test [1] has as its target T1, CLV1-GFP (Arabidopsis thaliana (Col-0 cDNA)) (UniProt Q9SYQ8).
T1 sequence: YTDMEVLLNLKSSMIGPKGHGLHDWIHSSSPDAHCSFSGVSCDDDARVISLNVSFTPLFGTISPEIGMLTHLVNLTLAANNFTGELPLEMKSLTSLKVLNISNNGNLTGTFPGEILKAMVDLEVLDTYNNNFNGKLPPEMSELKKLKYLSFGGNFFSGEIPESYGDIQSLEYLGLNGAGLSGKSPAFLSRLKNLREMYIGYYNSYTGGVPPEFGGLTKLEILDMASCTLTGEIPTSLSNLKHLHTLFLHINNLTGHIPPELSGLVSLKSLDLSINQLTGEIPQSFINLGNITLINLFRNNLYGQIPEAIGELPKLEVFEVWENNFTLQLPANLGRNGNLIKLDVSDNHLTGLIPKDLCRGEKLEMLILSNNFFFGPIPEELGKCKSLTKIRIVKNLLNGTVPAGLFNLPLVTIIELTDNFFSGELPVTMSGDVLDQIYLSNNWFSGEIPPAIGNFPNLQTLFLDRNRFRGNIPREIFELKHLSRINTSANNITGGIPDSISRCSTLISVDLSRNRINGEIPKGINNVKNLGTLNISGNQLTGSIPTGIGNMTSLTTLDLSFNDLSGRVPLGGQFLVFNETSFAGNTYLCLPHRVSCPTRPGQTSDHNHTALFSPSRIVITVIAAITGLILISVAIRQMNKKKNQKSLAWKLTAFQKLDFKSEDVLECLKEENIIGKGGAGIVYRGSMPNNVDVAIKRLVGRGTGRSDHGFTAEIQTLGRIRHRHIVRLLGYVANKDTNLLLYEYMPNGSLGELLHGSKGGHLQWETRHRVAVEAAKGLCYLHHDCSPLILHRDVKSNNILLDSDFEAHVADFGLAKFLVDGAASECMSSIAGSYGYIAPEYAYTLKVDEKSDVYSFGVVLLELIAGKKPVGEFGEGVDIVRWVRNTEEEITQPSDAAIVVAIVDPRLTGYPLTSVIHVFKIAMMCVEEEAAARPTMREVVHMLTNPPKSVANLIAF
Description: co-IP.

The target of test [2] is RGI3-GFP (Arabidopsis thaliana (Col-0 cDNA)) (UniProt C0LGR3). The test can be described thus: co-IP.

Take “FLS2-HA (from UniProt Q9FL28 24-1173) (receptor)”: the results for the binding result in test [1] and in test [2] were “no binding” and “binds”, respectively.
